This is an account of results in patent publication US8834635B2, “Degreasing compositions derived from levulinic acid (a compound obtainable from biomass) and process for degreasing metal surfaces” (Institut Univ. de Ciencia Tecnologia, S.A., priority 2011, dated 2014).

The structures appear in SMILES notation.

This data set can be described thus: Degreasing of sinterized metal parts followed by solvent evaporation. As to conditions: 3 h.

Consider `CCCCOC(=O)CCC(C)=O` [LAOC-4, Butyl levulinate], for which the “Percentage of mass loss (%)” value (Ultrasound, 58° C., evaporation 3 h at 120° C., P < 1 mmHg) is listed as 0.97%.

As for `ClC=C(Cl)Cl` [Trichloroethylene, reference compound], the “Percentage of mass loss (%)” value (Immersion, 110° C., evaporation 120° C.) is recorded as 0.93%.
